# This is one part of the list. Values are raw readings; no control value is given beside them.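 In the initial screen, polymyxin B was used at a concentration that permeabilizes Salmonella's outer membrane but not its inner membrane. Maximum growth was set by DMSO wells with or without polymyxin B. Since plates varied, data were ranked per plate, and compounds giving the lowest OD600 advanced as hits.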
# Test system: Salmonella enterica serovar Typhimurium SL1344
# Assay: bacterial growth OD600 after 18 h with compound and polymyxin B; higher = more bacterial growth (less inhibition)
# Details: 50 µM, Mueller-Hinton broth
Structure (SMILES),bacterial growth OD600 (polymyxin B 0.75 µg/mL),bacterial growth OD600 (polymyxin B 1 µg/mL)
c1ccc(Cc2noc(-c3ccc(NCC4COCCO4)nc3)n2)cc1 (centres undefined),0.792,
O=C(NCCCc1ccncc1)C1CC12CCN(C(=O)c1ccc(-c3cccc(F)c3)cc1)CC2 (centres undefined),0.771,
O=C1CCC(C(=O)N2CCC(Cc3ccccc3)CC2)CN1CCCN1CCOCC1 (centres undefined),,0.954
COCCN1CC(C(=O)NCc2ccc(OC(F)(F)F)cc2)CCC1=O (centres undefined),,0.954
CN(C)C1CCN(c2nc3nonc3nc2N2CCCCC2)C1 (centres undefined),0.839,
Cc1cc(C(F)(F)F)nc(CCNC(=O)Cn2cc(NC(=O)CSc3ccccc3)cn2)n1,0.843,
COc1ccc(OC2CCN(C3CCCC3)CC2)c(C(=O)N2CCN(C)C[C@@H]2C(C)C)c1,,1.27
COC(=O)CCCC(=O)N1CCC(C2CCN(c3ncccn3)CC2)C1 (centres undefined),0.85,
COCC1CCCCN1C(=O)c1ccc(OC2CCN(C(=O)C3CC3)CC2)cc1 (centres undefined),,0.869
CSc1ccccc1C(=O)NCc1c(C)ncc2c1CCN(C(=O)c1ccc(C)cc1C)C2,0.778,
CCC(COC)NC(=O)C1CCN(c2nc(C)c3ccc(S(C)(=O)=O)cc3n2)CC1 (centres undefined),0.977,
COC(=O)c1cc(CNC(=O)c2cccc(OC)c2OC)cc(NC(=O)/C=C/c2cccc(F)c2)c1,0.542,
COc1ccc2c(C)nc(N3CCCC(C(=O)N4CCC(C(O)c5ccccc5)CC4)C3)nc2c1 (centres undefined),0.003,
OCCC1CN(Cc2cccc(O)c2)CCN1Cc1ccccc1F (centres undefined),,0.938
CCOC(=O)C1(CCCc2ccccc2)CCCN(C(=O)CCn2cccn2)C1 (centres undefined),,0.917
CCN(CC)CCN(C)C(=O)c1ccc(OC)c(OC2CCN(C(C)C)CC2)c1,,1.16
COCC(=O)Nc1cc(C(=O)N2CCN(C)C(c3ccccc3)C2)cc2nc(-c3cccnc3)n(C)c12 (centres undefined),0.896,
COc1ccc(CN2C(=O)O[C@@H]3CN(C4CCCC4)C[C@@H]32)cc1OC,,1.04
O=C(Nc1ccc(N2CCC(NC(c3ccncc3)c3ccc(Cl)cc3)CC2)cc1)C1CCCC1 (centres undefined),0.007,

# Copied from the list.
# For bacterial growth OD600 (polymyxin B 0.75 µg/mL), c1ccc(Cc2noc(-c3ccc(NCC4COCCO4)nc3)n2)cc1 (centres undefined) reads 0.792
# For bacterial growth OD600 (polymyxin B 1 µg/mL), COCCN1CC(C(=O)NCc2ccc(OC(F)(F)F)cc2)CCC1=O (centres undefined) reads 0.954
